Values quoted from earlier work as cited in publication PMC12297036 (Iranian Journal of Pharmaceutical Research : IJPR, 2025).

Design: method as in earlier work
Details: adsorption by lanthanum-loaded biochar; ref 16 (Yuan et al.)

SMILES | maximum adsorption of BC-La
CC(O)(P(=O)(O)O)P(=O)(O)O [HEDP, hydroxyethylidene diphosphonic acid] | 15.80 mg/g
O=P(O)(O)O[C@H]1[C@H](OP(=O)(O)O)[C@@H](OP(=O)(O)O)[C@H](OP(=O)(O)O)[C@@H](OP(=O)(O)O)[C@H]1OP(=O)(O)O [IHP, phytic acid] | 85.85 mg/g
O=P(O)(O)OP(=O)(O)O [PYP, sodium PYP] | 14.45 mg/g
